# PubChem BioAssay (EPA / NIEHS)
# Chains of the proteins cited; added tags and fusions are not shown. Lines headed by an entry give the natural chain unless they say otherwise; changes in a name come on top.
# UniProt P19793: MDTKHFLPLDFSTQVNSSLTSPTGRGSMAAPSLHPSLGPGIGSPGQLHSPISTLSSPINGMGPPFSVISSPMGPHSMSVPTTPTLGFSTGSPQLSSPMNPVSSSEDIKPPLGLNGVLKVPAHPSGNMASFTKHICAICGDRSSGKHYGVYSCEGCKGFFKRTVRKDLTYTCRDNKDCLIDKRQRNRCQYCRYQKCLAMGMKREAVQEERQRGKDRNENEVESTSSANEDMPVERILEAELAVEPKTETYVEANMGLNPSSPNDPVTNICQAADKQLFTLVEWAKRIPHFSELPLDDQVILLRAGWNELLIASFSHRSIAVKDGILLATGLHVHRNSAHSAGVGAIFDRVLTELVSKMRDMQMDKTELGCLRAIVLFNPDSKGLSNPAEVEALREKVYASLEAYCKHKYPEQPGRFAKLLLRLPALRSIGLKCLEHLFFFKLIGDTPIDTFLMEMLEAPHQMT
# UniProt P10827: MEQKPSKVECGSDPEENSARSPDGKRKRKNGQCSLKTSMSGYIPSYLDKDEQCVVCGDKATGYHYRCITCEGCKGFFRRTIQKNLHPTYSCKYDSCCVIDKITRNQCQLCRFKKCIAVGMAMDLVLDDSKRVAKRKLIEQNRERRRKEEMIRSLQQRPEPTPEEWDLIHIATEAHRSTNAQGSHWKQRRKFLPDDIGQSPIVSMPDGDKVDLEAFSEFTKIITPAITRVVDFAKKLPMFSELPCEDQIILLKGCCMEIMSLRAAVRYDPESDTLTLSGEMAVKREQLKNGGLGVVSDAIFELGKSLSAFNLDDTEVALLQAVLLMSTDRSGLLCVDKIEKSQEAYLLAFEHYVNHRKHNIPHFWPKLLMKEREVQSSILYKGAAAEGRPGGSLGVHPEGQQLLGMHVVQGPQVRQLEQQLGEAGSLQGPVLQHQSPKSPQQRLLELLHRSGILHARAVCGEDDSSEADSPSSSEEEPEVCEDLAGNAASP
# UniProt P11473: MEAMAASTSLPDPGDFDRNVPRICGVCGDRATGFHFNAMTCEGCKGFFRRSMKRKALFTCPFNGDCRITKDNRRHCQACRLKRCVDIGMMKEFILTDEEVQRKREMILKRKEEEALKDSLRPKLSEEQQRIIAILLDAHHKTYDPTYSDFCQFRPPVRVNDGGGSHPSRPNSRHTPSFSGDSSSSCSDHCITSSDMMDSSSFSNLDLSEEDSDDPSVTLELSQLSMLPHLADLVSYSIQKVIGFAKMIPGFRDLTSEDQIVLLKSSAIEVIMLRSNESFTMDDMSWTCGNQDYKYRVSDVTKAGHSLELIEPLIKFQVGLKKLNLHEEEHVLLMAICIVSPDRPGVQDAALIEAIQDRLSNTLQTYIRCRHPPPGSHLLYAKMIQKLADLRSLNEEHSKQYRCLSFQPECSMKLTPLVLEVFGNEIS
# UniProt P11712, whole entry, looked up: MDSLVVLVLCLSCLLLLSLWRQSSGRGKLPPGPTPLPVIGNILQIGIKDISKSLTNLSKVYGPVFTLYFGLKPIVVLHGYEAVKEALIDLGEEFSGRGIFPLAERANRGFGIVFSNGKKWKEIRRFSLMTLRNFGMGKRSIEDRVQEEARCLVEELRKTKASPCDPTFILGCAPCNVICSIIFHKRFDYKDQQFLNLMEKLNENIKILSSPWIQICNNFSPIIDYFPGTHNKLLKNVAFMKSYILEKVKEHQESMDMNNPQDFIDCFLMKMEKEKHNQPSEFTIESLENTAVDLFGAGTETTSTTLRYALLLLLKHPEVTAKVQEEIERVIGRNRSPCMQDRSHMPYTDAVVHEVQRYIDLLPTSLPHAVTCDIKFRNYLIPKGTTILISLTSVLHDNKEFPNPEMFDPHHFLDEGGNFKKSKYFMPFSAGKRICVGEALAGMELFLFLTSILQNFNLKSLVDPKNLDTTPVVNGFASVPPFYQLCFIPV
# UniProt P08684, whole entry, looked up: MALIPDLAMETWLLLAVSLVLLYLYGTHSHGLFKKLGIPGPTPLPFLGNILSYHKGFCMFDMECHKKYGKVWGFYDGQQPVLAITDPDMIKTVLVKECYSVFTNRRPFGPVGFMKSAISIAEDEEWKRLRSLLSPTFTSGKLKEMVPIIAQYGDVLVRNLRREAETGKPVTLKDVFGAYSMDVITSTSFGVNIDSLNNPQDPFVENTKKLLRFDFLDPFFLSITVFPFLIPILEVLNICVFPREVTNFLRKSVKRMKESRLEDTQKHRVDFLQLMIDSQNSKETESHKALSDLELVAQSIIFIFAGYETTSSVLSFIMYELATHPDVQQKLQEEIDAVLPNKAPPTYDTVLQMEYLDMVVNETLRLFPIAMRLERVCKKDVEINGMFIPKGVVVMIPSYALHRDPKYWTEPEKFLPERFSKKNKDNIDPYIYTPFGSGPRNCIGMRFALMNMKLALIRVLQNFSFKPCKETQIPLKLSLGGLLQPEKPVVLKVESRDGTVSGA
# UniProt P51449: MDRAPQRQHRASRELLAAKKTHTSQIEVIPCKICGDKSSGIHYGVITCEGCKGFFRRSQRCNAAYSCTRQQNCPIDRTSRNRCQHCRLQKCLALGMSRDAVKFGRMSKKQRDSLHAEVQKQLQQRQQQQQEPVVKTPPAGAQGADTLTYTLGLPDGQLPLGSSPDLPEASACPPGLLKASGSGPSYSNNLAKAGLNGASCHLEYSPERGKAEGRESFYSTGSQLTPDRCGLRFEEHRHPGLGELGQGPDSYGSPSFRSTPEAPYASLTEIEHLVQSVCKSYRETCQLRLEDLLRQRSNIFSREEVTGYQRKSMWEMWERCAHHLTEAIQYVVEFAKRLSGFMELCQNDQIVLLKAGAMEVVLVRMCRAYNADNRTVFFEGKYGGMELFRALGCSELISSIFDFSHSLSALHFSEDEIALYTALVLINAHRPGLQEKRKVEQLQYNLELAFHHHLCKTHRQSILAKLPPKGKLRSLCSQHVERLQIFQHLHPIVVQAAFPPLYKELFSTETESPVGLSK
# UniProt P28702: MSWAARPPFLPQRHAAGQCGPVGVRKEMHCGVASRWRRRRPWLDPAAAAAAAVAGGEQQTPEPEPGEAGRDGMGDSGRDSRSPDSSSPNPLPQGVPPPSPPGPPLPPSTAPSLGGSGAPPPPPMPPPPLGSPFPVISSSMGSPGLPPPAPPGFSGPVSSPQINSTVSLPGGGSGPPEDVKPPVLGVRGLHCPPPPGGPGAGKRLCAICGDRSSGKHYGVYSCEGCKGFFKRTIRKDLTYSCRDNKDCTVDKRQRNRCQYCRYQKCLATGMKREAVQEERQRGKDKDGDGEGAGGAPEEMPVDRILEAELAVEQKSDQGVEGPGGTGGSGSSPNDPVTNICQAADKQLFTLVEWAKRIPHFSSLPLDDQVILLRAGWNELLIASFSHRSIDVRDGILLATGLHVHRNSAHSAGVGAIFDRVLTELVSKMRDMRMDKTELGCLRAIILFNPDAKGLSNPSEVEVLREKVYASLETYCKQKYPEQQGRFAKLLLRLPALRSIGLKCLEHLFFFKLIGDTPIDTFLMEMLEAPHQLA
# UniProt P11511: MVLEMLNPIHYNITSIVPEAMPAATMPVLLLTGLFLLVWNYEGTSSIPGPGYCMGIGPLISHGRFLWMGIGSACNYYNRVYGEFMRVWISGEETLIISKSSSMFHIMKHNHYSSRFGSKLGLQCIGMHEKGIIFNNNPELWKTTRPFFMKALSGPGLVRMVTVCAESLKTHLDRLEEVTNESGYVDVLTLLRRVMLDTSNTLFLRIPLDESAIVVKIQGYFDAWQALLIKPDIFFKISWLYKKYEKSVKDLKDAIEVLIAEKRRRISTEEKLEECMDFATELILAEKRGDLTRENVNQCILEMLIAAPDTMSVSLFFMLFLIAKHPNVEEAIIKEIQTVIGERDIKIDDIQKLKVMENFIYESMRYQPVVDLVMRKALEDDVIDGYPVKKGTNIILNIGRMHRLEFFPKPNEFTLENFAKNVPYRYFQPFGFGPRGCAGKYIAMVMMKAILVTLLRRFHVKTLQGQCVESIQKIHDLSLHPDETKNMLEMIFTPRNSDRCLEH
# UniProt Q92753: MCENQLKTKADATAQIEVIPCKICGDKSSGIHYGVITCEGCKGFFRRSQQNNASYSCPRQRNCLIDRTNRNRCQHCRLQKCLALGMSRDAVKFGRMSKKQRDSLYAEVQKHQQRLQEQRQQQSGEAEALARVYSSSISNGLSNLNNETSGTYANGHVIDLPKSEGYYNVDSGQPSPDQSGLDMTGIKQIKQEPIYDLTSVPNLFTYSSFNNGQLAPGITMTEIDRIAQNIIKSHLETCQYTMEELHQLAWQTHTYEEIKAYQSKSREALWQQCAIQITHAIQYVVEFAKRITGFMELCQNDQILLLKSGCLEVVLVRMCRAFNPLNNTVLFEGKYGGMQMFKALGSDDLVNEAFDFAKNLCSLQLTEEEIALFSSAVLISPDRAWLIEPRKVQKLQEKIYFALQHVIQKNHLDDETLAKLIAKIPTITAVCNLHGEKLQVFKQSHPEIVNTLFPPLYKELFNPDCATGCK
# UniProt P11509: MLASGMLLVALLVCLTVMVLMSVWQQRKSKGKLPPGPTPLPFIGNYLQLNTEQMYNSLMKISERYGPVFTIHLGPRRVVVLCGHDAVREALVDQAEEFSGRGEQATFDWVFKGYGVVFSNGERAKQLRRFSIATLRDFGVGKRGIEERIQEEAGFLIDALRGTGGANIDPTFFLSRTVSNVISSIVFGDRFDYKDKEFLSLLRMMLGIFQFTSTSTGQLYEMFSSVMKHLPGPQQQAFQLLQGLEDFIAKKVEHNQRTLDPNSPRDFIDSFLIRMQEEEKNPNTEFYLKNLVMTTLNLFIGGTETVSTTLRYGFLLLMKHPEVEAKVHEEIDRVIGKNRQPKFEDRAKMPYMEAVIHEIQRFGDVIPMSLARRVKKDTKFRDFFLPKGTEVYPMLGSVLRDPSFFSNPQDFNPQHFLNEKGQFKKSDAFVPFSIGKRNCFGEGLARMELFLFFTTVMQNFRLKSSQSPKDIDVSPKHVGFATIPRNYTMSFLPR
# UniProt P04798: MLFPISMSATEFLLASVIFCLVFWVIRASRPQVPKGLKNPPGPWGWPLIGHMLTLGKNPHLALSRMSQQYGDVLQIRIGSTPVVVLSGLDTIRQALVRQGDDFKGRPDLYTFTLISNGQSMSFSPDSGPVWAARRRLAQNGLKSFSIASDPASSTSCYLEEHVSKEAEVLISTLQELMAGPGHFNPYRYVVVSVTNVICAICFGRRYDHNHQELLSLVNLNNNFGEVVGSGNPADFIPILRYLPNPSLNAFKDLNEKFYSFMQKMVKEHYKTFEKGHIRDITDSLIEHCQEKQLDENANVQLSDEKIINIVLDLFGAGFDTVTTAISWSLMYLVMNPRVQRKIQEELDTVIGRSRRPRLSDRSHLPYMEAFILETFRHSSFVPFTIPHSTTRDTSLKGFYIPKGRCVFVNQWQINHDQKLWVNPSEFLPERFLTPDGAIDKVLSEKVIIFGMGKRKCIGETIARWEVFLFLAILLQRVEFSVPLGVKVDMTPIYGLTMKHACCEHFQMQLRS
# Several values for one entry are separate records, joined by “and”; a condition that tells them apart may be missing. Equal entries are not always repeated. Inconclusive means that the source gave no clear call. Such entries were picked first, then a sample of the others. For part of these data: A potency beside an inconclusive call is a rough fit, not a confirmed value. Some compounds were tested as several samples or in several runs, with calls that do not always agree. Activity calls are given as the source filed them. The calls were made as follows: active = hit-call score of the fitted dose curve at least 0.9, where 1 is the maximum; inconclusive = response in the unintended direction; inactive = score below 0.9.
# How the values were obtained:
# [1] = target: Retinoic acid receptor RXR-alpha (Homo sapiens) (UniProt P19793); assay: ATG_RXRa_TRANS: Attagene TRANS-FACTORIAL HepG2 Assay for human Retinoid X Receptor alpha (RXRa) (AID 2283012)
# In short: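 HepG2 cells transiently transfected with GAL4-UAS reporter units and chimeric RXRa-Gal4 protein, treated 24 h. Reporter mRNA measured by RT-PCR, fluorescent labelling, HpaI digestion and capillary electrophoresis. Induction fitted against DMSO.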
# [2] = target: human Thyroid Receptor alpha (THRa1), THRA (gene 7067) (UniProt P10827); assay: ATG_THRa1_TRANS: Attagene TRANS-FACTORIAL HepG2 Assay for human Thyroid Receptor alpha (THRa1) (AID 2283014)
# In short: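 Reporter transcript induction, read by capillary electrophoresis of 6-FAM-labelled RT-PCR products, reflects activity of a transfected THRa1-Gal4 fusion in HepG2 liver cells. Cells were dosed for 24 h; activity was fitted in the positive direction against DMSO.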
# [3] = target: human Vitamin D Receptor (VDR), VDR (gene 7421) (UniProt P11473); assay: ATG_VDR_TRANS: Attagene TRANS-FACTORIAL HepG2 Assay for human Vitamin D Receptor (VDR) (AID 2283022)
# In short: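 Steps: transfect HepG2 with GAL4-UAS-driven reporter constructs; dose compounds 24 h; isolate RNA, reverse-transcribe, PCR-amplify with 6-FAM-labelled primer extension and HpaI digestion; quantify fragments by capillary electrophoresis relative to DMSO.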
# [4] = target: human CYP2C9, CYP2C9 (gene 1559) (UniProt P11712); assay: NVS_ADME_hCYP2C9: NovaScreen (NVS) CYP450-related Enzyme Activity (ADME) Assay for human CYP2C9 (AID 2283108)
# In short: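 Cell-free assay of recombinant human CYP2C9 produced in Sf9 cells, with enzyme activity read by fluorescence intensity 0.75 h after compound addition. Loss of signal versus an acetonitrile negative control indicates inhibition. Primary screen used 10 uM in duplicate; actives were retested in concentration series.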
# [5] = target: Cytochrome P450 3A4 (Homo sapiens) (UniProt P08684); assay: NVS_ADME_hCYP3A4: NovaScreen (NVS) CYP450-related Enzyme Activity (ADME) Assay for human CYP3A4 (AID 2283110)
# In short: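 Cell-free assay using insect-cell-expressed human CYP3A4 with a fluorogenic substrate; fluorescence intensity was read 0.33 hour after dosing. Loss of signal relative to acetonitrile vehicle indicated inhibition. Primary single-concentration screen at 10 uM, in duplicate, then concentration series.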
# [6] = target: human RAR-related Orphan Receptor gamma (RORg), RORC (gene 6097) (UniProt P51449); assay: ATG_RORg_TRANS: Attagene TRANS-FACTORIAL HepG2 Assay for human RAR-related Orphan Receptor gamma (RORg) (AID 2283011);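 as to AC50: potency for induction of reporter transcripts above DMSO so activators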
# In short: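 First, HepG2 liver cells were transfected with GAL4-UAS-driven reporter constructs and the RORg-Gal4 fusion. Next, they were treated with chemical for 24 h. Finally, reporter mRNA was quantified by RT-PCR and capillary electrophoresis, with upward activity fitted against DMSO.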
# [7] = target: human Retinoid X Receptor beta (RXRb), RXRB (gene 6257) (UniProt P28702); assay: ATG_RXRb_TRANS: Attagene TRANS-FACTORIAL HepG2 Assay for human Retinoid X Receptor beta (RXRb) (AID 2283013)
# In short: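 HepG2 cells were transiently transfected with multiplexed GAL4-UAS reporters and a chimeric RXRb-Gal4 construct, then exposed for 24 h. Reporter mRNA was quantified by RT-PCR, FAM labeling, HpaI digestion and capillary electrophoresis; gain of signal was scored against DMSO.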
# [8] = target: human CYP19A1, CYP19A1 (gene 1588) (UniProt P11511); assay: NVS_ADME_hCYP19A1: NovaScreen (NVS) CYP450-related Enzyme Activity (ADME) Assay for human CYP19A1 (AID 2283098);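 as to AC50: potency for inhibitors seen as loss of fluorescent enzyme signal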
# In short: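 Cell-free enzyme assay with recombinant protein and a specific fluorogenic substrate, read by fluorescence intensity 0.5 h after dosing. Primary screen ran in duplicate at 10 uM; actives were retested in concentration series. Loss of signal versus acetonitrile baseline.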
# [9] = target: human RAR-related Orphan Receptor beta (RORb), RORB (gene 6096) (UniProt Q92753); assay: ATG_RORb_TRANS: Attagene TRANS-FACTORIAL HepG2 Assay for human RAR-related Orphan Receptor beta (RORb) (AID 2283010);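 as to AC50: potency for increased reporter mRNA meaning activation of RORb-Gal4 chimera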
# In short: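 HepG2 cells transiently transfected with GAL4-UAS reporter units expressing chimeric NR-Gal4 protein; reporter mRNA measured 24 h after dosing by RT-PCR, 6-FAM labelling and capillary electrophoresis. Gain-of-signal fitted relative to DMSO baseline.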
# [10] = target: human CYP2A6, CYP2A6 (gene 1548) (UniProt P11509); assay: NVS_ADME_hCYP2A6: NovaScreen (NVS) CYP450-related Enzyme Activity (ADME) Assay for human CYP2A6 (AID 2283099)
# In short: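 Fluorescent substrate turnover by recombinant CYP2A6 (insect cell source), 0.5 h read. Screen: 10 uM, duplicate; threshold hits (e.g. 30% inhibition) → singleton concentration-response, top 20 uM. Positive and negative controls on every plate.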
# [11] = target: human CYP1A1, CYP1A1 (gene 1543) (UniProt P04798); assay: NVS_ADME_hCYP1A1: NovaScreen (NVS) CYP450-related Enzyme Activity (ADME) Assay for human CYP1A1 (AID 2283100)
# In short: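 Recombinant hCYP1A1 + fluorogenic substrate, cell-free; 1 h; fluorescence read. Single-point 10 uM (duplicate) → concentration series, max 20 uM. Acetonitrile negative control.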
compound,measurement,setting,value
CCCCCCCCn1sccc1=O,AC50,[1],inconclusive: 34.6 µM
same,AC50,[2],inconclusive: 18.1 µM
same,AC50,[3],inconclusive: 34.6 µM
same,AC50,[4],active: 7.51 µM
same,AC50,[5],active: 8.75 µM
CC1(C(=O)Nc2ccc(O)c(Cl)c2Cl)CCCCC1,outcome,[6],inactive
same,AC50,[7],inconclusive: 50 µM
same,AC50,[2],inconclusive: 50 µM
same,outcome,[3],inactive
same,AC50,[8],inconclusive: 10 µM
COc1cc(OC)c(OC)cc1C=O,AC50,[6],inconclusive: 97.5 µM
same,outcome,[7],inactive
same,outcome,[3],inactive
CC(C)Nc1ccc(Nc2ccccc2)cc1,AC50,[3],inconclusive: 9.37 µM
Nc1cccc2ccccc12,AC50,[9],inconclusive: 177 µM
same,AC50,[6],inconclusive: 55.8 µM
same,outcome,[1],inactive
same,outcome,[2],inactive
COP(=S)(OC)Oc1ccc([N+](=O)[O-])c(C)c1,outcome,[9],inactive
same,AC50,[6],inconclusive: 2.52 µM
same,AC50,[1],inconclusive: 0.801 µM
same,outcome,[8],inactive
Clc1ccc(-c2ccccc2)cc1,AC50,[9],inconclusive: 100 µM
same,outcome,[1],inactive
same,AC50,[2],inconclusive: 100 µM
CCOP(=S)(OCC)Oc1nc(Cl)c(Cl)cc1Cl,AC50,[6],inconclusive: 26.4 µM
same,AC50,[7],active: 30.9 µM
same,outcome,[3],inactive
Cc1ccc(N)cc1N,outcome,[9],inactive
same,outcome,[1],inactive
same,outcome,[7],inactive
same,outcome,[10],inactive
O=C(O)CCCc1ccc(N(CCCl)CCCl)cc1,AC50,[2],inconclusive: 27.4 µM
same,AC50,[3],inconclusive: 2.03 µM
CCC(CC)Nc1c([N+](=O)[O-])cc(C)c(C)c1[N+](=O)[O-],AC50,[9],inconclusive: 0.396 µM
same,outcome,[7],inactive
same,AC50,[2],inconclusive: 14.3 µM
O=P(O)(Oc1ccccc1)Oc1ccccc1,AC50,[9],inconclusive: 22.2 µM
same,AC50,[6],inconclusive: 26.3 µM
same,outcome,[7],inactive
CCN(CC)C(=O)C(C)Oc1cccc2ccccc12 (configuration not stated),outcome,[9],inactive
same,outcome,[1],inactive
same,AC50,[2],inconclusive: 0.0343 µM
same,AC50,[4],active: 4.54 µM
O=P1(N(CCCl)CCCl)NCCCO1 (configuration not stated),AC50,[9],inconclusive: 100 µM
same,AC50,[1],inconclusive: 100 µM
same,AC50,[7],inconclusive: 0.576 µM
CSc1nc(N=[N+]=[N-])nc(NC(C)C)n1,AC50,[9],inconclusive: 100 µM
same,AC50,[6],inconclusive: 1.23 µM
same,outcome,[2],inactive
CCC(=NOC/C=C/Cl)C1=C(O)CC(C2CCOCC2)CC1=O (configuration not stated),outcome,[9],inactive
same,outcome,[7],inactive
same,AC50,[3],inconclusive: 50 µM
same,outcome,[4],inactive
CC1(C)C(=O)NC(=O)NC1=O,outcome,[9],inactive
same,outcome,[6],inactive
same,outcome,[7],inactive
same,AC50,[3],inconclusive: 26.5 µM
CCCC=NO,outcome,[9],inactive
same,outcome,[7],inactive
same,AC50,[3],inconclusive: 0.00914 µM
CCSC(=O)N(CC)C1CCCCC1,AC50,[6],inconclusive: 91.7 µM
same,AC50,[1],inconclusive: 19.7 µM
same,AC50,[2],inconclusive: 0.0394 µM
CC(=O)OC(c1ccccc1)C(Cl)(Cl)Cl (configuration not stated),AC50,[9],inconclusive: 23.8 µM
same,AC50,[6],inconclusive: 1.86 µM
same,AC50,[7],inconclusive: 100 µM
same,AC50,[3],inconclusive: 100 µM
CCCN(CCC)c1c([N+](=O)[O-])cc(C(F)(F)F)cc1[N+](=O)[O-],AC50,[9],inconclusive: 50 µM
same,AC50,[6],inconclusive: 50 µM
same,AC50,[1],inconclusive: 50 µM
same,AC50,[2],inconclusive: 0.0129 µM
same,AC50,[3],inconclusive: 50 µM
CCC(C)(c1ccc(O)cc1)c1ccc(O)cc1,AC50,[7],active: 9.02 µM and active: 17.8 µM and active: 19.6 µM
same,AC50,[2],inconclusive: 7.93 µM and inconclusive: 68.9 nM
same,AC50,[10],inconclusive: 10 µM
same,AC50,[11],inconclusive: 2.46 µM

# Another view of some results above.
compound	measurement	setting	value
CCCCCCCCn1sccc1=O	AC50	[3]	inconclusive: 34.6 µM
Nc1cccc2ccccc12	AC50	[6]	inconclusive: 55.8 µM
O=P1(N(CCCl)CCCl)NCCCO1 (configuration not stated)	AC50	[9]	inconclusive: 100 µM
CC(=O)OC(c1ccccc1)C(Cl)(Cl)Cl (configuration not stated)	AC50	[7]	inconclusive: 100 µM
